Laboratory results as given in US20060156431A1, “L-gulose dependent vitamin C synthesis” (Vlaams Interuniversitair Instituut Voor Biotechnologie VZW, priority 2003, published 2006).
These are yes or no findings as the source states them, for the method shown. Binding seen in cells or lysates may run through a third protein. Some entries that bind do so weakly or less than the wild type. Sequences can lack the tags named with a protein.

Amino acid sequences for entries named in this document (tags omitted). Residues count along the entry.
UniProt P0A6Y8, residues 2-638: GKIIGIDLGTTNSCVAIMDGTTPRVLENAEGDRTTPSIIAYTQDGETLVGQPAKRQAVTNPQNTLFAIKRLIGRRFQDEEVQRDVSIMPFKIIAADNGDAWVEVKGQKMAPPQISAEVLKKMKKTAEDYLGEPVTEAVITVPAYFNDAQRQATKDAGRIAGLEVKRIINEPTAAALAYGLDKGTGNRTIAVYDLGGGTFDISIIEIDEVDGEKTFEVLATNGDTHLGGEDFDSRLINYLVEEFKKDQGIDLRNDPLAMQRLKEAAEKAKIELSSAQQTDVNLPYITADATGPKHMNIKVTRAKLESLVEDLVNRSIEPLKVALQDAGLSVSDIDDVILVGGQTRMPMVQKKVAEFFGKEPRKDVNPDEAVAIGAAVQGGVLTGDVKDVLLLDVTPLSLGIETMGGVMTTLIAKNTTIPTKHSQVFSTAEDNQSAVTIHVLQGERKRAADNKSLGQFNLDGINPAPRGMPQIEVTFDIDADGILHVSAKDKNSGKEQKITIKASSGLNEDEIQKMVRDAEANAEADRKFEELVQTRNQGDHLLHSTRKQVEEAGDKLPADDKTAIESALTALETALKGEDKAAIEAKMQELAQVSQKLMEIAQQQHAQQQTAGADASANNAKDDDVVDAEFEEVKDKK

What was measured:
[1] = target: T1, recombinant His-tagged GDP-Man 3″,5″-epimerase of A. thaliana (A. thaliana) (UniProt Q93VR3); experiment: co-purification
T1 sequence: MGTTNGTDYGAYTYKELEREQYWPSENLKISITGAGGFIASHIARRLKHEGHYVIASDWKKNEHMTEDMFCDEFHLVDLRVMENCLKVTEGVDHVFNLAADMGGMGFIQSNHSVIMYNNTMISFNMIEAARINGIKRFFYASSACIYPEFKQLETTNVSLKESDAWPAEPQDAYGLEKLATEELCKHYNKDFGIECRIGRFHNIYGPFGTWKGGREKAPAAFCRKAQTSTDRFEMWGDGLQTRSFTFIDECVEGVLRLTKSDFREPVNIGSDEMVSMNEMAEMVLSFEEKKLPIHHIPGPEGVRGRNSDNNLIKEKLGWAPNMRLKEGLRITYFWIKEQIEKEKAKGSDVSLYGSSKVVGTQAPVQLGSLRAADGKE

[2] = target: T1, recombinant His-tagged GDP-Man 3″,5″-epimerase of A. thaliana (A. thaliana); experiment: co-purification on affinity column (Ni-NTA), SDS-PAGE and MS identification of bands

“DnaK, a Hsp70 chaperone of E. coli (from UniProt P0A6Y8 2-638)” was tested, and the binding [1] was “binds” and the binding [2] was “binds”.
